{
  "source": "patent US20080181875A1",
  "about": "“USE OF CYCLOPHILIN AS ANTIOXIDANT AND PREVENTION OF CYCLOSPORIN A-INDUCED TOXICITY IN CELL TRANSPLANTATION BY OVEREXPRESSION OF CYCLOPHILIN” (priority 2002, published 2008)",
  "system": "ROS",
  "experiment": "Cellular ROS level by DCF flow cytometry (FACS)",
  "type": "cell-based, rat",
  "conditions": "10 μM, 24 hours in DM",
  "experimental": "H9c2 myoblasts were cultured for 24 hours in PM and in DM, and then in the presence of 10 μM DCF (2′,7′-dichlorofluorescein). After being harvested, the cells were washed once with PBS and resuspended in […] of PBS. The cellular levels of ROS generated were measured by flow cytometry (FACS), there values were regarded as controls. […] ROS levels were analyzed by FACS. […] ROS levels were measure as the above. The results are given in FIG. 5a where numerals indicate mean±standard deviation values of the ROS levels in the cells.",
  "note": "Some entries share one result that the patent states for a list of compounds.",
  "data": [
    {"smiles": "C/C=C/C[C@@H](C)[C@@H](O)[C@H]1C(=O)N[C@@H](CC)C(=O)N(C)CC(=O)N(C)[C@@H]([C@@H](C)CC)C(=O)N[C@@H](C(C)C)C(=O)N(C)[C@@H](CC(C)C)C(=O)N[C@@H](C)C(=O)N[C@H](C)C(=O)N(C)[C@@H](CC(C)C)C(=O)N(C)[C@@H](CC(C)C)C(=O)N(C)[C@@H](C(C)C)C(=O)N1C", "note": "[SDZ NIM811]", "values": [
      {"measurement": "ROS level relative to cells cultured in the absence of the drugs", "result": "at least 5 fold"}
    ]}
  ]
}
